# According to article PMC9938216:
# The chains behind the UniProt entries cited, without tags or fusion partners.
# UniProt P63044: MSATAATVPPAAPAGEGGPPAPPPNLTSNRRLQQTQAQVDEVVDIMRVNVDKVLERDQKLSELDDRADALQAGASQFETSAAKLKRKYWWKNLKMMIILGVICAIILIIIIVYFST
# Results are given in words; binding and its absence hold for the method and conditions named. Binding seen in cells or lysates may run through a third protein. Some binding calls cover weakened binding; strength is not graded here. Tags and fused reporters may be left off the sequences shown.
# Molecular target: T1, FLAG-Prrt2 (UniProt E9PUL5)
# T1 sequence: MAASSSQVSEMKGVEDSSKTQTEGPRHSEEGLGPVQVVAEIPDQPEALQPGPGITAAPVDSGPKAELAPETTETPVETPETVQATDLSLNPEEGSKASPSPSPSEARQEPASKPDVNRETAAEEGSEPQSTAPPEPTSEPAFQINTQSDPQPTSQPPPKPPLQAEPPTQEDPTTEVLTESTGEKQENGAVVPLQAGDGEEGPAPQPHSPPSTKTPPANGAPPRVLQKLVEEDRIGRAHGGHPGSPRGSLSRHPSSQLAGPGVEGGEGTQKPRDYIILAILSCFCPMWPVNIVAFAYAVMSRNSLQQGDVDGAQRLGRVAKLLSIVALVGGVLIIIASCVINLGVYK
# Assay: co-IP; HEK293T cells transfected with FLAG-Prrt2 and T7-VAMP2 or myc-STX1A; IP with anti-FLAG antibody or mouse IgG in 50 mM Tris pH 7.4, 150 mM NaCl, 1% Triton X-100; western blotting
substance,measurement,value
T7-VAMP2 (from UniProt P63044 1-116),binding,binds
